# Results published in the supplement of paper PMC11732987, “Enantioselective OTUD7B fragment discovery through chemoproteomics screening and high-throughput optimisation” (Communications Chemistry, 2025).
# Sequences of proteins named here, by UniProt entry; tags and fusion partners are left off. A change or cut given only in a name is not applied to a line headed by its entry. Residues count along the entry.
# UniProt P30041: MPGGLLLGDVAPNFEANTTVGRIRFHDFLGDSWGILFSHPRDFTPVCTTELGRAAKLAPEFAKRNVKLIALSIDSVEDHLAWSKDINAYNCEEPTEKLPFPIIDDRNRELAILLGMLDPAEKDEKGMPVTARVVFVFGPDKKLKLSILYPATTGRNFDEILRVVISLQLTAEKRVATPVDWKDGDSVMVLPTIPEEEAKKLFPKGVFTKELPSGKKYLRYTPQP
# UniProt P60510: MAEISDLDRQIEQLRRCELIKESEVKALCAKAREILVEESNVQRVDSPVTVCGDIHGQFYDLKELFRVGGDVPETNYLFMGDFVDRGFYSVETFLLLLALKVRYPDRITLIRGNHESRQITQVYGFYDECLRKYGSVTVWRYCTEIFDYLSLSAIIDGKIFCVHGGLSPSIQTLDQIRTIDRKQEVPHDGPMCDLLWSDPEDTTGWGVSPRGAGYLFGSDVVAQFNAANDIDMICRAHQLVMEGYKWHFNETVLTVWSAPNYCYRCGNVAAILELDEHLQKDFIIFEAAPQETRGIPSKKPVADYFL
# UniProt Q5H9R7, 822-843: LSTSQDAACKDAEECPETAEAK
# UniProt O94906: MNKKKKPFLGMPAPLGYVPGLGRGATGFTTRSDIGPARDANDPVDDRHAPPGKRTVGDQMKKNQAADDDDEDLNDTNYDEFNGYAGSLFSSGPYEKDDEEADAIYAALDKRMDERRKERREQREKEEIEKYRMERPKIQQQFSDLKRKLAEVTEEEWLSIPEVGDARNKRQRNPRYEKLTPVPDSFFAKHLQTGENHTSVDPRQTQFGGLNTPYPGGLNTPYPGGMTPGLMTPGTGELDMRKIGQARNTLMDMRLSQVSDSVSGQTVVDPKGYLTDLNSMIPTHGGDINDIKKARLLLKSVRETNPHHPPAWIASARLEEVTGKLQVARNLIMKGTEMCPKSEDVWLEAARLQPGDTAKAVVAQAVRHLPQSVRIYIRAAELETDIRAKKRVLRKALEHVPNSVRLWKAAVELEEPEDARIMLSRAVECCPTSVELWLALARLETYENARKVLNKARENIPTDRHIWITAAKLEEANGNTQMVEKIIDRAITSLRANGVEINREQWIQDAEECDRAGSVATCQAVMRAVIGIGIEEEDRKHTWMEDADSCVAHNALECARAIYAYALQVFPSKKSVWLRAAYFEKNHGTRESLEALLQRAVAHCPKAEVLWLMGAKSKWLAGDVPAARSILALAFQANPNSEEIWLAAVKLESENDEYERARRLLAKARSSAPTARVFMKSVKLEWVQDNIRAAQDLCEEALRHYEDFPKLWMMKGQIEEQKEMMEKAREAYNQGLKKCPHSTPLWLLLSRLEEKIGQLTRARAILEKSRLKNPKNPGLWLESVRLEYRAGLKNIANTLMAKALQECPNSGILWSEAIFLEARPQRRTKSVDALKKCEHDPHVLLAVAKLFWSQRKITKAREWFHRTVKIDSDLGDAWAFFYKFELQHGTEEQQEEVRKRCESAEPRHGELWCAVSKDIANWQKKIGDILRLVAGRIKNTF
# UniProt Q15172: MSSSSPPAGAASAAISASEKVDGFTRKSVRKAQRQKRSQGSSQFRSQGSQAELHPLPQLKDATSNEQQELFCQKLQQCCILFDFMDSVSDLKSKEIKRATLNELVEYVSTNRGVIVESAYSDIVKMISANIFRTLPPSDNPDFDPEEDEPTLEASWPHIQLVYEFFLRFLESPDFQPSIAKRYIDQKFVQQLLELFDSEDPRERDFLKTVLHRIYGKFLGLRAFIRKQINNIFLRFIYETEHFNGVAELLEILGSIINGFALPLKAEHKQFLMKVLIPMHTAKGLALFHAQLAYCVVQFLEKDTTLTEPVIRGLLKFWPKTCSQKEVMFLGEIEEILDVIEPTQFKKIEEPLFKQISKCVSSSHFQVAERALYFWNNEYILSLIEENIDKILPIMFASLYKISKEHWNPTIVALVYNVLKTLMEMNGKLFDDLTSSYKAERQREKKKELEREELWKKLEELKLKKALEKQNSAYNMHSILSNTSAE
# UniProt O43900: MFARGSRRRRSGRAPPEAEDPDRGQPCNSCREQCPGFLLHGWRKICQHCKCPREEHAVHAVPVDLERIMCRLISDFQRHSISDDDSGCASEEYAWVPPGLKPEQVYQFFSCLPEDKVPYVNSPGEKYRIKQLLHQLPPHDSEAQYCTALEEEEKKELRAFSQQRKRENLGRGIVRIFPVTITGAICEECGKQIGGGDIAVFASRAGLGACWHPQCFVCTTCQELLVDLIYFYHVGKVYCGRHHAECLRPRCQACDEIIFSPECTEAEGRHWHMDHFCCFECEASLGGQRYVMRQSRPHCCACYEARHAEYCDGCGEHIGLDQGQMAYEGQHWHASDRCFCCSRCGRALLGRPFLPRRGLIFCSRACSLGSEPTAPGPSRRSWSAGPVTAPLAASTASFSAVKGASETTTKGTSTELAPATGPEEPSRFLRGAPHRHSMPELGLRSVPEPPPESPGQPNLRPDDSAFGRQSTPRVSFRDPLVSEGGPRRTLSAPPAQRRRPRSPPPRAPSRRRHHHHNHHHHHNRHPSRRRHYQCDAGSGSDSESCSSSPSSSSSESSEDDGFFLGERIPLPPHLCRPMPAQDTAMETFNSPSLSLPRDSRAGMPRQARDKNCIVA
# UniProt O95685: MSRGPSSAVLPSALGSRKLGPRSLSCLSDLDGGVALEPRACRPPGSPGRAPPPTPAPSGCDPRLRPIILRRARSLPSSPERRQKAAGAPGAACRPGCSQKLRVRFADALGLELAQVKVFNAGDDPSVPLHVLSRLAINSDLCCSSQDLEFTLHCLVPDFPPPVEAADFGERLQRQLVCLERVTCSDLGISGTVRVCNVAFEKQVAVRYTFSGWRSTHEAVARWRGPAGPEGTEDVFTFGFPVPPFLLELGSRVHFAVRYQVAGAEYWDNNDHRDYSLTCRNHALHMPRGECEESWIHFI
# UniProt Q9ULL5, 976-997: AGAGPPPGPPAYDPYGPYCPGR
# UniProt O00411: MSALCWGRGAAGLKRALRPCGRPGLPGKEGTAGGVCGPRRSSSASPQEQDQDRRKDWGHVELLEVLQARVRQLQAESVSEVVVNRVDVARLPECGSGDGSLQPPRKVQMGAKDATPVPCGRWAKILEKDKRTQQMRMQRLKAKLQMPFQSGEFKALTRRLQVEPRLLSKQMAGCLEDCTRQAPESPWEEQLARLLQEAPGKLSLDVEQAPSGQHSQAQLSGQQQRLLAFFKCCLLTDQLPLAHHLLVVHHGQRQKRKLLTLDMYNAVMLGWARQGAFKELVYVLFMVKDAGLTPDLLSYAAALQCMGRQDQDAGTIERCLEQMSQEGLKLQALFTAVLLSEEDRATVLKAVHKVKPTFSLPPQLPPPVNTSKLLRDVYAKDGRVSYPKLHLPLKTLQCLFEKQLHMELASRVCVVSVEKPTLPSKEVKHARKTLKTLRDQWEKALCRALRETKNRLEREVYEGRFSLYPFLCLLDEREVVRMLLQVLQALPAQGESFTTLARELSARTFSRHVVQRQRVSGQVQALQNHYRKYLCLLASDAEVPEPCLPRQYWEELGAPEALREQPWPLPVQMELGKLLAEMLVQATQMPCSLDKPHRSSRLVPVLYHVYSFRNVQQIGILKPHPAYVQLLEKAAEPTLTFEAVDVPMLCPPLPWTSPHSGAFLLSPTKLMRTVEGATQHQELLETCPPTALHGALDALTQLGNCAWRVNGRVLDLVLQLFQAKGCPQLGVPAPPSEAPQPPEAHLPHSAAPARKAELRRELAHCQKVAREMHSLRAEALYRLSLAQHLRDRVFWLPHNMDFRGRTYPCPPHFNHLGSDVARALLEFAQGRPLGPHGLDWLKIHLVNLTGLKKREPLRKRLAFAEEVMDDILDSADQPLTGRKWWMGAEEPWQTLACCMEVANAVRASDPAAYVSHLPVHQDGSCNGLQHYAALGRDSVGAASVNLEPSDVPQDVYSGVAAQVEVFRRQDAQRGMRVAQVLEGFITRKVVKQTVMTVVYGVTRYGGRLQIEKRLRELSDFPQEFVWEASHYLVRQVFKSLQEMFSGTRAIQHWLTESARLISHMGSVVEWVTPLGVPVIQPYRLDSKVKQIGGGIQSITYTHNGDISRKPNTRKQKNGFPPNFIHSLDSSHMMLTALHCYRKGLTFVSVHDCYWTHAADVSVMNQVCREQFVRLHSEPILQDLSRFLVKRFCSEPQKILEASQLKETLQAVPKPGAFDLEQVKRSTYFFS
# UniProt Q8TF05: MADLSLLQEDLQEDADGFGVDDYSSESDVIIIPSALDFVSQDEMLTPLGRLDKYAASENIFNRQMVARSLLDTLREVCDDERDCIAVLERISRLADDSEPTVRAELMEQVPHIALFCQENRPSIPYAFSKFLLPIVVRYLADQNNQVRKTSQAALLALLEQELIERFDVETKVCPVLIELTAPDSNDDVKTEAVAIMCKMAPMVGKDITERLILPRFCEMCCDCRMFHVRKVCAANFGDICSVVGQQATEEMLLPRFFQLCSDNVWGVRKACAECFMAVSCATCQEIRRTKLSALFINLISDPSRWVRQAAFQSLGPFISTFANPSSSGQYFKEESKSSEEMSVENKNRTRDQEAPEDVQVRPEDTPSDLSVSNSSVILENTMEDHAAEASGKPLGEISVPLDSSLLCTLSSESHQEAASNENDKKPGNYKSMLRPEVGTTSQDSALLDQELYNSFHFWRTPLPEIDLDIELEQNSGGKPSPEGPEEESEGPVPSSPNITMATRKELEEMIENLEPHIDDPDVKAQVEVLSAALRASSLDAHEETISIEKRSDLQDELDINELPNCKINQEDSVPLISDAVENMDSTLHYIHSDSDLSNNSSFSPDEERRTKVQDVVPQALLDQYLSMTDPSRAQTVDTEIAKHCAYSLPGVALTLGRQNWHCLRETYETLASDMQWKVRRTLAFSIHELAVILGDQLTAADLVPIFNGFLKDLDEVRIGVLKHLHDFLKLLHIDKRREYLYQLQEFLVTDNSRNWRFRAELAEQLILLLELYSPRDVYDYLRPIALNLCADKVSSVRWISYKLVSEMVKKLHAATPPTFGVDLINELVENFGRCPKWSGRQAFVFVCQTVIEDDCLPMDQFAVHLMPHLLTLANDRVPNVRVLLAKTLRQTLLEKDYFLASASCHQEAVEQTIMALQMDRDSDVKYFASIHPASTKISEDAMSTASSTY
# UniProt Q969Q6: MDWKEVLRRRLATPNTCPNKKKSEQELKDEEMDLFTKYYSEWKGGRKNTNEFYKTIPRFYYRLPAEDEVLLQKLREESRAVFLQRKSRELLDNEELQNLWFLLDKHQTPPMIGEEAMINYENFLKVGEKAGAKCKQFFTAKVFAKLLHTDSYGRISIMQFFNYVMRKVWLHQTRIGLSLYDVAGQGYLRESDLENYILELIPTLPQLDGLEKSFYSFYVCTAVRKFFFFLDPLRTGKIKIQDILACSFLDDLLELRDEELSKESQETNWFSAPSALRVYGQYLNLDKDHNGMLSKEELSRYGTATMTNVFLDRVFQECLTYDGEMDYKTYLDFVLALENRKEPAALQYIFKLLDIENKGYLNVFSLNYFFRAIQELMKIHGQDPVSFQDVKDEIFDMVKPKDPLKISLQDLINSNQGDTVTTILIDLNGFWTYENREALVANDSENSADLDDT
# UniProt Q96SB3: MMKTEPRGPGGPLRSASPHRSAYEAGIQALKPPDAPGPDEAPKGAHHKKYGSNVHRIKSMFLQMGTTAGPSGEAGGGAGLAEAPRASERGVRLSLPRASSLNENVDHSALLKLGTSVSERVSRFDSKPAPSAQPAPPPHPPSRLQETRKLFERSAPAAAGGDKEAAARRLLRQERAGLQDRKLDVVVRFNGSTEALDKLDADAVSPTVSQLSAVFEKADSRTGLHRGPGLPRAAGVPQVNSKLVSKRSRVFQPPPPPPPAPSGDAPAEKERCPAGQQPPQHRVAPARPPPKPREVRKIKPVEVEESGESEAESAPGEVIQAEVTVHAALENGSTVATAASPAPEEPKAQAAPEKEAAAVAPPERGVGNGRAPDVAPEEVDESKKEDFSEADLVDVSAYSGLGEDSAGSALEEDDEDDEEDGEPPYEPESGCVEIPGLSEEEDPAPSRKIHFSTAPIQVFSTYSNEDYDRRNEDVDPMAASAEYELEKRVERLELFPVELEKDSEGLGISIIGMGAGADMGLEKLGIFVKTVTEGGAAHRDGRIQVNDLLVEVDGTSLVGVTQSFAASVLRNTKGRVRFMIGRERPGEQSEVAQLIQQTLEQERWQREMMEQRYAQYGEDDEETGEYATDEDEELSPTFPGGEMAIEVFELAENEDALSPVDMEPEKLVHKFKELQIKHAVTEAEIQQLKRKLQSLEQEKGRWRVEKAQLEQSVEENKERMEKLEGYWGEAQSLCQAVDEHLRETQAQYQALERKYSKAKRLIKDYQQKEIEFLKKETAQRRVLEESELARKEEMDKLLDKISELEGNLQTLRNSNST
# The other results are listed elsewhere or left out. The data scatter; read single values as rough.
# Compound: ClCC(=O)N[C@H]1CCCc2ccccc12
# Test: log2 mean competition ratio of IA-DTB cysteine labelling (DMSO/compound) (log2 ratio); higher = stronger cysteine engagement by compound
# Settings: treatment time: 4 h, cell line lysate: HEK293T
# Description: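 IA-DTB competitive cysteine chemoproteomics in HEK293T RIPA lysate. Lysates were treated with compound 29 or 30 at 50 or 200 µM for 4 h, then IA-DTB (500 µM, 1 h), trypsin-digested, NeutrAvidin-enriched and analysed by diaPASEF. Competition ratio = intensity DMSO / intensity compound (n=4 treated, n=64 DMSO); binding: mean log2 CR ≥ 1 and p ≤ 0.05 plus QC filters. Target is the cysteine site.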
Target,log2 mean competition ratio (50 µM),log2 mean competition ratio (200 µM)
PRDX6 C47 (UniProt P30041),-1.2,-1.2
PREP C255,0.255,-0.21
PPP4C C266 (UniProt P60510),-0.173,-0.35
"PPP6R3_(C830,C830,C836,C836) (UniProt Q5H9R7)",-0.474,0.00661
PRPF6 C698 (UniProt O94906),0.00624,-0.0766
PPP2R5A C72 (UniProt Q15172),-0.0269,0.306
PRICKLE3 C366 (UniProt O43900),-0.294,0.128
POLR2B C357 (UniProt P30876),-0.324,-0.0494
PPP1R3D C60 (UniProt O95685),-0.0652,0.237
PRR12 C994 (UniProt Q9ULL5),0.365,0.403
POLRMT C765 (UniProt O00411),0.0588,0.0123
PPP4R1 C566 (UniProt Q8TF05),-0.171,0.225
PPP2R3C C17 (UniProt Q969Q6),0.105,0.172
POLR2B C892 (UniProt P30876),-0.152,0.203
PPP1R9B C272 (UniProt Q96SB3),0.00668,-0.249

# 2 entries drawn at random from those above, as already listed:
Target,log2 mean competition ratio (50 µM),log2 mean competition ratio (200 µM)
PREP C255,0.255,-0.21
POLR2B C357 (UniProt P30876),-0.324,-0.0494
